PubChem BioAssay AID652272 – Drosophila RNAi Screening Center | 2013
In all, the deposit lists about 21,000 reagents; below is an unselected part of those that have a named target and a result. Of all reagents, 503 (2.4%) were called active. 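Raw plate light values, not normalised; calls rest on replicate z-scores that were not deposited; hits include reporter decreases as well as increases.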 Unmarked entries are inactive. No sequences are given here. The record does not give: the amount of reagent, the time to read-out.

Assay: 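Genome-wide knock-down search for components of Hedgehog signalling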 (primary screen)
Cells: Drosophila clone 8 (Cl8) cells
Reagents: long dsRNA against Drosophila genes
Detection: 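Firefly light from a Hedgehog-responsive ptc promoter reporter and Renilla reference light, both read on a plate reader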
Reading the numbers: firefly Hh reporter signal: higher = more ptc reporter light; Renilla reference signal: higher = more Renilla control light
Hit rule: 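Called a hit if the two-replicate mean z-score lies below -2 or above +3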
Calls: active = hit: reporter lowered or raised; inactive = not a hit

| target gene | dsRNA | firefly Hh reporter signal, replicate 1 | firefly Hh reporter signal, replicate 2 | firefly Hh reporter signal, replicate 3 | Renilla reference signal, replicate 1 | Renilla reference signal, replicate 2 |
| --- | --- | --- | --- | --- | --- | --- |
| Nup35 | DRSC19999 | 1.26e5 | 69117 | – | 3033 | 1709 |
| GC2 | DRSC14476 | 92657 | 90258 | – | 3553 | 1642 |
| NdufA3 | DRSC18431 | 96121 | 3.53e5 | – | 2960 | 10602 |
| SmydA-1 | DRSC07200 | 1.80e5 | 1.12e5 | – | 6787 | 4528 |
| CG11141 | DRSC06048 | 1.42e5 | 90827 | – | 5393 | 2848 |
| Prosbeta1 | DRSC07159 | 52709 | 44149 | – | 3737 | 2160 |
| smo | DRSC00837 | 11381 (active) | 10996 | – | 3385 | 2768 |
| CG2540 | DRSC19856 | 1.37e5 | 95284 | – | 3412 | 2413 |
| Lcp65Ag3 | DRSC10345 | 75146 | 65872 | – | 8390 | 4648 |
| Fs | DRSC06258 | 1.06e5 | 1.06e5 | – | 4585 | 3927 |
| Fs | DRSC06259 | 63729 | 44932 | – | 1777 | 3738 |
| Cog4 | DRSC03057 | 1.32e5 | 54698 | – | 4649 | 2073 |
| Edg78E | DRSC11863 | 1.55e5 | 1.10e5 | – | 5269 | 3376 |
| CG4645 | DRSC19907 | 86470 | 57906 | – | 2696 | 1491 |

A few values from above.
Under “Renilla reference signal, replicate 2”, CG2540 [DRSC19856] shows 2413
Edg78E [DRSC11863], firefly Hh reporter signal, replicate 1: 1.55e5
Fs [DRSC06259], firefly Hh reporter signal, replicate 2 → 44932
Under “Renilla reference signal, replicate 1”, Cog4 [DRSC03057] has 4649

The listing continues.
| target gene | dsRNA | firefly Hh reporter signal, replicate 1 | firefly Hh reporter signal, replicate 2 | firefly Hh reporter signal, replicate 3 | Renilla reference signal, replicate 1 | Renilla reference signal, replicate 2 |
| --- | --- | --- | --- | --- | --- | --- |
| CG43271 | DRSC01614 | 6.18e5 | 1.19e5 | 1.14e5 | 4065 | 3409 |
| CG12470 | DRSC18620 | 79003 | 1.88e5 | – | 2864 | 6886 |
| cnn | DRSC05422 | 1.64e5 | 2.97e5 | – | 4785 | 12283 |
| cnn | DRSC07596 | 73946 | 58704 | – | 1814 | 4433 |
| prg | DRSC03324 | 1.13e5 (active) | 52875 | – | 1624 | 4098 |
| CG40191 | DRSC21041 | 4.80e5 | 2.16e5 | – | 30726 | 4855 |
| Or22c | DRSC00766 | 84516 | 95200 | – | 2486 | 2217 |
| CG7290 | DRSC10800 | 89973 | 1.29e5 | – | 3372 | 3827 |
| Or94b | DRSC16773 | 4.31e5 | 73430 | – | 21446 | 2160 |
